How the values were obtained:
[1] = in vivo; conditions: both, Gammarus pulex, in vivo, G. pulex
Experimental: (§1) Individual adult organisms (n = 25), both male and female (>5 mg wet weight) were placed in Pyrex glass beakers. G. pulex were carefully transferred to beakers using blunt forceps to avoid any harm to the organisms before exposure. Each beaker contained 25 organisms in 200 mL of exposure media (AFW and test compound). […] All exposure media contained <0.001% of organic solvent (methanol). A total of 300 organisms were used per compound exposure and were sampled for n = 3 per time-point. […] These were subsequently analysed for background contamination. […] Each animal specimen was rinsed with ultra-pure water and then frozen at −20 °C.
(§2) Water samples collected from exposure experiments were filtered using Whatman filters (0.2 μM) and directly injected onto the LC-MS/MS for analysis. For G. pulex, A mass of 50 mg of lyophilised and ground material was extracted by glass bead pulverisation in 5 mL of acetonitrile and diluted with 100 mL of ammonium acetate buffer (10 mM) for loading onto Waters HLB solid phase extraction (SPE) cartridges (6 cc, 200 mg sorbent).
(§3) Briefly, separations were performed on an Agilent HP1100 LC system configured with a Waters SunFire reversed-phase C18 column (150 mm × 2.1 mm, 2.5 μM particle size). […] Detection was performed using a Waters Quattro triple quadrupole mass spectrometer with electrospray ionisation operated in positive and negative polarity switching mode. Quantification of analytes was performed using 3-point internal standard matrix-matched calibration using the peak area ratio of non-labelled analyte (precursor range: 50–300 ng g^−1, biotransformation product range: 50–150 ng g^−1) to the stable isotope labelled internal standard (SIL-IS) (100 ng g^−1).
(§4) Herein, the authors define BCFtotal as the summation of the BCF of both parent/precursor and biotransformation products (i.e. the total body burden). Whereas, BCFparent will be used to describe the BCF determined for the parent compound alone.

[2] = system: Gammarus pulex; assay: in vivo; conditions: exposure 1 μg L^−1 (warfarin, propranolol 10 μg L^−1)
Experimental: as §1, §2, §3, §4

[3] = Experimental: as §1, §2
[4] = sequential, Levenberg-Marquardt algorithm
[5] = sequential, linear regression on elimination data

SMILES: COC(=O)C1=C(C)NC(C)=C(C(=O)OC)C1c1ccccc1[N+](=O)[O-] [Nifedipine, nifedipine]
- concentration at 6 h ([1]; pH 8.19, Concentration, 6h Mean, n=3, exposure 1 μg L^−1 (warfarin, propranolol 10 μg L^−1)): 19 ng/g
- concentration at 24 h ([1]; pH 8.19, Concentration, 24h Mean, n=3, exposure 1 μg L^−1 (warfarin, propranolol 10 μg L^−1)): 20 ng/g
- concentration at 48 h ([1]; pH 8.19, Concentration, 48h Mean, n=3, exposure 1 μg L^−1 (warfarin, propranolol 10 μg L^−1)): 16 ng/g
- concentration at 48 h ([1]; pH 8.19, internal concentration at the end of the uptake phase, 48 h, exposure 1 μg L^−1 (propranolol 10 μg L^−1)): ≤ 51 ng/g
- BCFparent, Sequential a [2, 4]: 31 L/kg
- k1, Sequential a [2, 4]: 0.7802
- k2, Sequential a [2, 4]: 0.0248
- BCFparent, Sequential b [2, 5]: 31 L/kg
- k1, Sequential b [2, 5]: 0.7802
- k2, Sequential b [2, 5]: 0.0248
- BCFparent, Simultaneous ([2]; simultaneous parametrisation): 16 L/kg
- k1 (uptake rate constant), Simultaneous ([2]; simultaneous parametrisation): 4677.31
- k2 (depuration rate constant), Simultaneous ([2]; simultaneous parametrisation): 295.66
- Concentration, 24 h ([3]; exposure media after 24 h of exposure with Day 1 solution, n = 3): 0.59 ng/mL
- Concentration, 48 h ([3]; exposure media after 24 h of exposure with Day 2 solution, n = 3 (propranolol n = 2)): 0.49 ng/mL
- average decrease of aqueous concentration ([3]; exposure media, across both days of the uptake phase): 39%
- Concentration, Day 2 (initial pharmaceutical concentration on day 2) ([3]; exposure media, n = 2): 0.82 ng/mL
- Concentration, Day 1 (initial pharmaceutical concentration on day 1) ([3]; exposure media, n = 3, nominal 1 μg L^−1 (propranolol 10 μg L^−1)): 0.94 ng/mL

From publication PMC5476196, “Uptake, biotransformation and elimination of selected pharmaceuticals in a freshwater invertebrate measured using liquid chromatography tandem mass spectrometry” (Chemosphere, 2017)
